PMC10529771
Results are given in words; binding and its absence hold for the method and conditions named. Binding seen in cells or lysates may run through a third protein. Some entries that bind do so weakly or less than the wild type.

By UniProt entry, the sequences of proteins in these tests, tags left out. Residues count along the entry.
UniProt P29117, residues 30-206: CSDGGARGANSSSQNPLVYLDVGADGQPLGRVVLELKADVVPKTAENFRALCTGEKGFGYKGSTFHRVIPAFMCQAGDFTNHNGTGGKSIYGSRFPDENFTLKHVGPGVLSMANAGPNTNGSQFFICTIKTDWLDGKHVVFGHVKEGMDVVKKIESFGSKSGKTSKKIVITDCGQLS
UniProt P48721, residues 47-679: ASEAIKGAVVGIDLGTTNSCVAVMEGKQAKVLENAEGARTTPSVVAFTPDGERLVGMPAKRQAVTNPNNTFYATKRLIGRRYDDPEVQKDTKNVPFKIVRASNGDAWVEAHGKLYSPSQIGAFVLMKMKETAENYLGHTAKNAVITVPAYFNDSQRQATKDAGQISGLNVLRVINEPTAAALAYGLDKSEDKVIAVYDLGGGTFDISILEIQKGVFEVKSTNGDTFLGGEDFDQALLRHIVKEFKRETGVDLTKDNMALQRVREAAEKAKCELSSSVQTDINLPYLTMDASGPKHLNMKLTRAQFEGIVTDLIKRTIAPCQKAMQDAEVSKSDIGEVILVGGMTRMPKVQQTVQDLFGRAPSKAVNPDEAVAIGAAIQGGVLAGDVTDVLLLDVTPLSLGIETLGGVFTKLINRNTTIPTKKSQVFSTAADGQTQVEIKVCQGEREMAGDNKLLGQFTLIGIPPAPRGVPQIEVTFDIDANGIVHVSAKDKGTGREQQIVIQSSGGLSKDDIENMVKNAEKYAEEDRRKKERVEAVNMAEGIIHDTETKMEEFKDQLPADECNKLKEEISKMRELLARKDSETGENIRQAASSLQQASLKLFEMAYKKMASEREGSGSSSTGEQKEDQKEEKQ
UniProt O35433: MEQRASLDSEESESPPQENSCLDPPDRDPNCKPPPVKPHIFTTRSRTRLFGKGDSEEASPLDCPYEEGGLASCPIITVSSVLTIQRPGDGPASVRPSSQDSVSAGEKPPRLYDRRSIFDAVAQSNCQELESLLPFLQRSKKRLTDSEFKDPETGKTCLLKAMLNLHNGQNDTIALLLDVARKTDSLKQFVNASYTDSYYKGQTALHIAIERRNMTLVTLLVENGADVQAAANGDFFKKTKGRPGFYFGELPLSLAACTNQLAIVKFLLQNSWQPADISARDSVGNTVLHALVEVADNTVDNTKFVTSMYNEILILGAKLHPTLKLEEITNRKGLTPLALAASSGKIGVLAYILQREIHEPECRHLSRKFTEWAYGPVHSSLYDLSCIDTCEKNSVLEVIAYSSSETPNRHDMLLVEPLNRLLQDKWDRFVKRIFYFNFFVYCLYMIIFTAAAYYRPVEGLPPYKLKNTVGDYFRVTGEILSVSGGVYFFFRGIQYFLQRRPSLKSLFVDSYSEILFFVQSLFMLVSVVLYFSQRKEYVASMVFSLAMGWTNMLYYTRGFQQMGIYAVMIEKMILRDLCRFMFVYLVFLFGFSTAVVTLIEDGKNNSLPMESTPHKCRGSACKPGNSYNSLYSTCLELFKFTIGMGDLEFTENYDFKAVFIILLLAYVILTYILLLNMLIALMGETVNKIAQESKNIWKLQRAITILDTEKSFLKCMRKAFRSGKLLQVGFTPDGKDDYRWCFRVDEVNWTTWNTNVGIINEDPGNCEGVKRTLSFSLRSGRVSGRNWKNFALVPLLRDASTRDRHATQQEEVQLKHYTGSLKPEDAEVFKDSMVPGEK

Columns and labels:
Assay in all cases: proximity ligation; Duolink (anti-rabbit plus, anti-mouse minus) on SV40-transformed H9c2 cells fixed with 4% paraformaldehyde and permeabilised with 0.01% Triton X-100; endogenous proteins detected by primary antibodies; signal if the proteins are at a distance <40 nm; confocal imaging
[1] = target: T1, genes associated with retinoid-IFN-induced mortality-19 (GRIM19) (rat (endogenous in SV40-transformed H9c2)) (UniProt F1LZC5)
T1 sequence: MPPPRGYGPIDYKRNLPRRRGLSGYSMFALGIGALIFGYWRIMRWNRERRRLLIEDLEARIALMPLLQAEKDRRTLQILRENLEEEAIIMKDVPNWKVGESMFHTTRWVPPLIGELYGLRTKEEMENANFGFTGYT

[2] = target: cyclophilin F (CypF) (rat (endogenous in SV40-transformed H9c2)) (UniProt P29117)
[3] = target: glucose-regulated protein 75 (GRP75) (rat (endogenous in SV40-transformed H9c2)) (UniProt P48721)

Substance: transient receptor potential vanilloid 1 (TRPV1) (from UniProt O35433 1-838)
- binding [1]: no binding
- binding [2]: no binding
- binding [3]: binds
